Results of single-concentration screens

Data taken from ChEMBL document CHEMBL3988442, “University of Dundee, Small-Polar-MMV Screening Library” (2021).

A: 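Growth of Mycobacterium tuberculosis over 4 days (cholesterol / DPPC medium with tyloxapol); the read-out is not stated. Compounds at 50 µM. Direction is inferred from retests: higher values go with more growth inhibition. About 69,000 compounds were tested under these conditions; 0.54% (about 370) showed 50% or more at least once.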
B: 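Phenotypic screen: M. tuberculosis growth, glucose 7H9 medium, 3 days; the read-out is not stated. Concentration: 50 µM. The record gives no direction; compounds that gave an IC50 in retests scored well above the rest, so higher reads as more growth inhibition. About 69,000 compounds were tested under these conditions; 1.1% (about 760) showed 50% or more at least once.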

The filed quantity is “Percent Effect” (%). The record does not define 0% and 100%; most values in the screen are far below 50% and negative numbers occur (in some assays of this library far below -100). This is an unselected part of the compounds tested. Two or more numbers in one place are separate tests of the same structure; such repeats can differ widely.

For COC(=O)c1cccc(S(=O)(=O)Nc2ncc(C)s2)c1 the result was A: 11.46%; B: 14.79%.
For Cc1cnc(N2Cc3nccn3CC(Cn3nc(C)nc3C)C2)nc1 (stereo not given) the result was A: -18.2% & -0.002089%; B: 0.6087% & -17.65%.
For O=C(NC1CCCN(c2ccccc2Cl)C1)c1ccc(=O)[nH]n1 (stereo not given) the result was A: 5.341%; B: 13.99%.
For CC(C)N(Cc1ccc(C#N)cc1)Cc1nnsc1Cl the result was A: -4.203%; B: -0.09602%.
For CCN1CCC(CC(=O)NCc2nc(C)cc(C)n2)CC1 the result was A: 5.267%; B: 14.58%.
For COCCN1CCC(CNC(=O)C2(c3cccc(C)c3)CC2)CC1 the result was A: -14.02%; B: -16.64%.
For COc1ccc(CN(C)[C@@H]2CN(C(=O)c3cncs3)C[C@H]2O)cc1 the result was A: -8.287%; B: 1.673%.
For Cc1cc(CC(=O)NCc2ccnc(OCC(F)(F)F)c2)no1 the result was A: -0.7265%; B: -15.93%.
For O=C(NCC1CC1)C1CSCN1S(=O)(=O)c1ccccc1 (stereo not given) the result was A: 1.429%; B: -4.641%.
For O=C(C1CC(=O)N(c2ccccc2Br)C1)N1CCN(CC(F)(F)F)CC1 (stereo not given) the result was A: -21.6%; B: -23.41%.
For [H][C@]12CCN(S(=O)(=O)CC(C)C)CC[C@@]1([H])S(=O)(=O)CCN2C(C)=O the result was A: 0.05656%; B: 3.726% & -4.501%.
For Cc1nn2c(=O)/c(=C\c3cccs3)sc2nc1=O the result was A: -7.716%; B: -5.077% & -2.219%.
For O=C(CCNCc1cccc(O)c1)N1CCc2sccc2C1 the result was A: -24.07%; B: 17.71% & 5.412%.
For CNC(=O)Cc1ccccc1NC(=O)C1CCN(C2CCCCC2)C1 (stereo not given) the result was A: 5.334%; B: 0.8924%.
For O=C(O)C(F)(F)F.[H][C@]12CN(Cc3ccc(F)cc3)C[C@@]1([H])S(=O)(=O)CC[C@@H]2C(=O)NCC(C)C the result was A: 11.47%; B: -5.822%.
For COc1ccc(CN(C)[C@@H]2CN(C(=O)c3cccnc3)C[C@H]2O)cc1 the result was A: -2.371%; B: 18.83%.
For CCC(CC)N(Cc1cc(=O)n(C)c(=O)n1C)C1CC1 the result was A: -33.44%; B: -16.67%.
For Cc1ccc(-c2nnc(CNC(=O)c3cccnc3)o2)cn1 the result was A: -4.063%; B: -9.425%.
For Cn1cc(C2CCCN2Cc2cscn2)cn1 (stereo not given) the result was A: 11.46%; B: -9.723%.
For [H][C@@]12CN(Cc3cccnc3)C[C@]1([H])OCCN2Cc1c(C)noc1C the result was A: -8.006%; B: 18.21%.
For CC(=O)N(Cc1ncc(C)o1)C1CCN(CCc2ccncc2)C1 (stereo not given) the result was A: -3.399%; B: -3.276%.
For [H][C@]1([C@H](O)c2ccc(NC(=O)C3CC3)cc2)COCC(=O)N1CC(C)C the result was A: -18.55%; B: -4.603% & 1.496%.
For CCN(C(=O)c1nc2c(s1)CCCN2C(C)=O)C(C)C the result was A: -13.61%; B: 5.933%.
For COc1c(C2CCCN2C(=O)c2cc(C)on2)c(C)nn1C (stereo not given) the result was A: -11.76%; B: -10.81%.
For O=C(CC1CC1)N1Cc2nccn2CC(COc2cccnc2)C1 (stereo not given) the result was A: -14.54%; B: -11.8%.
For CCN1CCn2c(C)cnc2C12CCN(C(=O)Cc1ccccc1)CC2.O=C(O)C(F)(F)F.O=C(O)C(F)(F)F the result was A: -7.875% & 1.505%; B: 3.929%.
For CCc1nc(C2CCCN2Cc2nnc(C3CC3)o2)no1 (stereo not given) the result was A: -5.28%; B: -8.595%.
For CN(C)C(=O)Cn1cc(C#N)c(=O)c2cc(Br)ccc21 the result was A: -5.618%; B: -4.292%.
For CNc1cc(C)nc(N2C[C@H](NC(=O)C3CCOCC3)[C@@H](C3CC3)C2)n1 the result was A: 19.74%; B: -1.144%.
For CCOC(=O)CNC(=O)NCc1cc(C)n(-c2ccccc2OC)c1C the result was A: 7.344%; B: -15.41%.
For Cc1nc(N(C)C)nc2c1COCC21CCN(C(=O)NC(C)C)C1 (stereo not given) the result was A: 14.63% & 5.287%; B: 2.916%.
For Oc1ccccc1-c1cc(-c2nc(C3CC3)n[nH]2)[nH]n1 the result was A: 13.21%; B: 23.42%.
For CCS(=O)(=O)c1ncc(CN(C)CCc2ccccn2)n1CCOC the result was A: 3.774% & 4.265%; B: -9.512%.
For CNC(=O)C1CC(=O)N(c2cccc(F)c2)C1 (stereo not given) the result was A: -10.9%; B: -10.98%.
For OC1(CN2CCN(c3cccc(C(F)(F)F)c3)CC2)CNCCOC1 (stereo not given) the result was A: 30.09%; B: 41.88%.
For N#Cc1cc(C(F)(F)F)ccc1NCC1CCS(=O)(=O)CC1 the result was A: -10.53%; B: -2.35% & 11.79%.
For COC(=O)c1sccc1S(=O)(=O)N1CCC(Oc2cccnn2)CC1 the result was A: -16.72%; B: -4.557% & 11.72%.
For Cc1cnc(CN(Cc2ccccc2)CC2CCOCC2)cn1 the result was A: 15.21%; B: -4.182%.
For COc1ccc(N2CCCN(C(=O)Cc3csc(C)n3)CC2)cc1 the result was A: 2.024%; B: -15.61%.
For CC(=O)NCc1nccnc1C1CCN(C(=O)c2cc[nH]n2)CC1 the result was A: -7.371%; B: -10.41%.
For Cc1[nH]ncc1C(=O)N1CCN(CC(O)C(C)(C)C)CC1 (stereo not given) the result was A: 5.164%; B: 0.7351%.
For CC(C)Cc1noc(COc2ccc(N(C)C(N)=O)cc2)n1 the result was A: 5.328%; B: 2.969% & 17.77%.
For Cc1ccc(N2CCC3(CC2)CCN(C2CCOCC2)CC3)nn1.O=C(O)C(F)(F)F the result was A: 1.891%; B: -4.346% & -11.83%.
For Cc1cc(CN[C@@H](C)C(N)=O)c(C)s1 the result was A: -2.639% & -2.963%; B: 15.55% & -0.1505%.
For Cl.O=C(NCC1CCCO1)c1cc(-c2ccncc2)c2cnccc2n1 (stereo not given) the result was A: -27.61%; B: 11.35%.
For Cc1ccn2ncc(C(=O)N3CCCC(n4nc(C)nc4C)C3)c2n1 (stereo not given) the result was A: 5.948%; B: -5.365%.